# Source: patent publication US6632621B1, “G protein-coupled receptor-like receptors and modulators thereof” (priority 1999, dated 2003)
# Some results were stated once for a whole list of compounds, not compound by compound. Where a SMILES comes first, the peptide text is derived from it. Where no end group is shown, it is not given here. [ ]: non-standard residue; d: D form. pGlu = O=C1CC[C@@H](C(=O)O)N1
# How the values were obtained:
# CEGPCR4 receptor [1] = molecular target: T1, CEGPCR4 receptor (Caenorhabditis elegans, UniProt A0A078BTK0); test: [35S]GTPγS binding assay, membranes of CHO cells transfected with CEGPCR4; format: biochemical, C. elegans; details: read-out: EC50 range-GTPγS assay; Table 8; one range for the group of peptides
# T1 sequence (A0A078BTK0 1-376): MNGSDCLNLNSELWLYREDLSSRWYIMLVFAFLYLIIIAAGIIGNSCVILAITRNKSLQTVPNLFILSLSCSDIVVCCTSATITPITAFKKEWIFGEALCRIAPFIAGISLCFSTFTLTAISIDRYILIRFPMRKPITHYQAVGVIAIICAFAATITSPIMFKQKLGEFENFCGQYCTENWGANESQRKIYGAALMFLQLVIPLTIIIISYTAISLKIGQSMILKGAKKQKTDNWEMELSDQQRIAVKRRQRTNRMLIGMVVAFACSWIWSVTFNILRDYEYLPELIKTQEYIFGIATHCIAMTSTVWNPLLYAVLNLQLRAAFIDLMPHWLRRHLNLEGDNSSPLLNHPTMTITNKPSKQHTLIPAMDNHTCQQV
# CEGPCR4 receptor [2] = molecular target: T1, CEGPCR4 receptor; test: Flp18 binding assay: [125I]YDVPGVLRFamide binding and competition on CEGPCR4/CHO membranes; design: species or system C. elegans; details: read-out: IC50 range-binding assay; Table 8; one range for the group of peptides; competition with [125I]YDVPGVLRFamide
Molecule,EC50 (CEGPCR4 receptor [1]),IC50 (CEGPCR4 receptor [2])
TDVDHVFLRF-NH2 [TDVDHVFLRF-NH2],≥ 10 µM,50 to 500 µM
CC(C)C[C@H](NC(=O)[C@H](Cc1ccccc1)NC(=O)[C@@H](NC(=O)[C@H](Cc1c[nH]cn1)NC(=O)[C@H](CC(=O)O)NC(=O)[C@@H](NC(=O)[C@H](CC(=O)O)NC(=O)[C@@H]1CCC(=O)N1)C(C)C)C(C)C)C(=O)N[C@@H](CCCNC(=N)N)C(=O)N[C@@H](Cc1ccccc1)C(N)=O [pQDVDHVFLRF-NH2] ([pGlu]DVDHVFLRF-NH2),0.4 to 9 µM,60 to 900 µM
PDVDHVFLRF-NH2 [PDVDHVFLRF-NH2],0.4 to 9 µM,60 to 900 µM
